The target in assay [1] is FLAG-MAP1B-LC1 (wild type) (not stated (human or rat cDNA cloned)) (UniProt P46821). Kind of assay: co-IP; FLAG-tagged bait on FLAG M2 beads from lysates of transiently transfected 293T cells (1% Triton X-100, 25 mM Tris-HCl pH 7.2, 150 mM NaCl, 1 mM EDTA), eluted with FLAG peptide, immunoblot; in some experiments cells treated with 1 uM latrunculin A and 10 ug/ml nocodazole for 30 min before lysis (interaction weakened); in Fig. S4 D three proteins co-expressed. On the technique in general: A western blot detects proteins with antibodies after separation by electrophoresis.

The chains behind the UniProt entries cited, without tags or fusion partners. Where a name states a change or a piece, a line headed by the entry shows the natural chain unless it says otherwise. Residues count along the entry.
UniProt P46821, residues 2207-2468: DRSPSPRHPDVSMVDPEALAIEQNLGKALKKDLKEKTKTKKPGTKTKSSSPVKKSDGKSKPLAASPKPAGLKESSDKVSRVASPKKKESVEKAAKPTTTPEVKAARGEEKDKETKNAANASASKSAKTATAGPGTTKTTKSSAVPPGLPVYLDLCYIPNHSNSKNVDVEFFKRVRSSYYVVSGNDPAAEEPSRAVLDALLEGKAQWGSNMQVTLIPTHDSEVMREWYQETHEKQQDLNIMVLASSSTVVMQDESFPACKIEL
UniProt Q14247: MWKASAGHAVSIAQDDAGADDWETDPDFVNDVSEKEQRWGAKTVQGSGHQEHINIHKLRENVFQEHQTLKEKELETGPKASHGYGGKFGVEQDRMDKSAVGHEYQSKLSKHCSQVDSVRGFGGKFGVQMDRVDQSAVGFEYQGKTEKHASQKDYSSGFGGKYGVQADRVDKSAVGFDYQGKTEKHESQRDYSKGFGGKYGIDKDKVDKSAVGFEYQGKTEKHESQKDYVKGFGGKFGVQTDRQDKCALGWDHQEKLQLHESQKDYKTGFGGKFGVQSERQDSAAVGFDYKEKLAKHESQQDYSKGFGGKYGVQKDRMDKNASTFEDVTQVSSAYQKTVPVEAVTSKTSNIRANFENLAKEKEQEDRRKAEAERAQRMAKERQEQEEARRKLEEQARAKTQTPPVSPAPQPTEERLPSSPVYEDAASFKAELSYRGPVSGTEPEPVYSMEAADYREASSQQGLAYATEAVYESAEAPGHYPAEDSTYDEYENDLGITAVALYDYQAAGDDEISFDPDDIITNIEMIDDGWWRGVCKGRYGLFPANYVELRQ
UniProt Q60598: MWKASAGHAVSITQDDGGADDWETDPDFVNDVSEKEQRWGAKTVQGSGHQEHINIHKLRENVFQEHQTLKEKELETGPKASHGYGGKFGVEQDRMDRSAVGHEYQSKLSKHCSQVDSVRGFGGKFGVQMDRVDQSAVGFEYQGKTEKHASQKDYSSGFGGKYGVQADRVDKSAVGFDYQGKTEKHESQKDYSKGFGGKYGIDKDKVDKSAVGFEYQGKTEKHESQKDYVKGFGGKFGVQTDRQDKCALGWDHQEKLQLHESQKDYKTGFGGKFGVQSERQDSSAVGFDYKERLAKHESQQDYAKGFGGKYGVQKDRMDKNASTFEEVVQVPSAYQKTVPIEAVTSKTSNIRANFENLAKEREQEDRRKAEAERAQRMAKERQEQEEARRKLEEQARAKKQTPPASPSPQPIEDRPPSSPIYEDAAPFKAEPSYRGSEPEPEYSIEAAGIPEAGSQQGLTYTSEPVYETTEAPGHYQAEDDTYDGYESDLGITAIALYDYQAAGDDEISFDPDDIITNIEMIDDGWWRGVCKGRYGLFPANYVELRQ
GST-cortactin SH3 domain fusion protein: residues 488-546 of Q60598

Assay [2] concerns the target endogenous cortactin (human (endogenous in MDA-MB-231)) (UniProt Q14247). Kind of assay: proximity ligation; Duolink PLA on paraformaldehyde-fixed MDA-MB-231 cells with anti-MAP1B-LC1 and anti-cortactin; in some experiments 1 uM latrunculin A and 10 ug/ml nocodazole for 30 min before fixation (proximity weakened).
In assay [3] the target is GST-cortactin SH3 domain fusion protein (UniProt Q60598). Briefly: pull-down; GST- and His-tagged proteins mixed in 0.1% Triton X-100, 25 mM Tris-HCl pH 7.5, 150 mM NaCl, 1 mM EDTA, 4°C overnight; glutathione beads 30 min at 4°C; immunoblot; in Fig. S4 E two His-tagged proteins with one GST fusion; both purified.

No constants are given. Whether binding was seen depends on the method and setting. For some of these results: In cells and extracts the contact can be indirect. Some entries that bind do so weakly or less than the wild type.

The values that follow come from publication PMC10866687.

For the substance “cortactin-GFP (wild type), in 293T cells (from UniProt Q60598 1-546)”, the binding result in assay [1] is “binds”.
Same read-out and setting: the value for “cortactin W525K (SH3 mut)-GFP (from UniProt Q60598 1-546)” was “no binding”.
As for “endogenous MAP1B-LC1 (from UniProt P46821 2207-2468)”, the binding result in assay [2] is on record as “binds”.
Regarding “His-MAP1B-LC1 (from UniProt P46821 2207-2468) (domain or fragment)”, in assay [3], the binding entry is reported as “binds”.
